Laboratory results reported in paper PMC8514745.
These are yes or no findings as the source states them, for the method shown. Some binding calls cover weakened binding; strength is not graded here.

Molecular target: Tf receptor 1 (TfR1) on extracellular vesicles (mouse (endogenous in plasma extracellular vesicles)) (UniProt Q62351)
Assay: passive cargo-loading of extracellular vesicles; extracellular vesicles from mouse plasma containing TfR1 loaded with aTf by two passive cargo-loading strategies; only the binder purified

## human apoTransferrin (aTf) (from UniProt P02787 20-698) (ligand)
  binding: binds
